Results deposited as PubChem BioAssay AID743456 (Peter MacCallum Cancer Centre, 2014)
In all, the deposit lists 878 reagents; this is a part drawn at random. 27 of them (3.1%) count as active. 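27 mimics are marked active, unlike an earlier stated count of 24; the viability threshold is described inconsistently.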 Entries without a mark were called inactive. Reagent sequences are not shown. Not given: the amount of reagent.

- Purpose: 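Mimic library tested for viability and apoptosis changes under vorinostat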 (primary screen)
- Cell system: human HCT116-VR colon cancer cells, a vorinostat-resistant HCT116 line
- Reagent: miRNA mimic
- Time to read-out: about 3 days from transfection to readout; drug present for the last 24 h
- Treatment: vorinostat at 2.5 µM final for 24 h
- Measured: 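Per-well live-cell protease fluorescence and caspase luminescence under 2.5 µM vorinostat for 24 h, scored as robust z-scores and against mock transfection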
- Reading the numbers: viability robust z-score and viability vs mock transfection: higher = more viable cells; caspase robust z-score: higher = more caspase activity, more apoptosis
- Rule for the call: 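Active when viability drops or caspase activity climbs beyond robust z thresholds, with wells of poor cell health excluded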

microRNA | viability robust z-score | caspase robust z-score | viability hit class | caspase hit class | viability vs mock transfection
hsa-miR-1978 | 0.55 | -0.34 | no change | no change | 0.88
hsa-miR-525-5p | -0.75 | -0.88 | no change | no change | 0.66
hsa-miR-518c* | -0.56 | 0.32 | no change | no change | 0.7
hsa-miR-600 | -0.44 | 0.73 | no change | no change | 0.72
hsa-miR-7-1* | 1.18 | -0.59 | no change | no change | 0.98

2 neighbouring reagents already listed, for reference:
microRNA | viability robust z-score | caspase robust z-score | viability hit class | caspase hit class | viability vs mock transfection
hsa-miR-518c* | -0.56 | 0.32 | no change | no change | 0.7
hsa-miR-600 | -0.44 | 0.73 | no change | no change | 0.72

More records follow:
microRNA | viability robust z-score | caspase robust z-score | viability hit class | caspase hit class | viability vs mock transfection
hsa-miR-129-3p | -1.46 | -0.74 | no change | no change | 0.48
hsa-miR-499-5p | 0.21 | 0.24 | no change | no change | 0.79
hsa-miR-23b* | 0.48 | 0.41 | no change | no change | 0.86
hsa-miR-584 | -0.14 | 3.66 | no change | no change | 0.77
hsa-miR-657 | -1.54 | -0.97 | no change | no change | 0.48
hsa-miR-1307 | -0.57 | 0.52 | no change | no change | 0.65
hsa-let-7g* | -1.53 | 1.48 | no change | no change | 0.53
hsa-miR-122 | -1.48 | 0.16 | no change | no change | 0.48
